{"source": "patent US10053451B2", "about": "“Heterocyclic estrogen receptor modulators and uses thereof” (priority 2015, dated 2018)", "system": "MCF-7 cells", "experiment": "Breast Cancer Cell Viability Assay (CellTiter-Glo)", "format": "cell-based", "details": "Homo sapiens, MCF7, 120 h, 5 days of compound exposure, read-out: MCF7 viab IC50", "experimental": "The following day a 10 point, serial 1:5 dilution of each compound was added to the cells in 16 μL at a final concentration ranging from 10-0.00000 μM. After 5 days of compound exposure, 16 μL of CellTiter-GLo (Promega, Madison Wis.) was added to the cells, and the relative luminescence units (RLUs) of each well were determined. CellTiter-Glo added to 32 μL of medium without cells was used to obtain a background value."}
{"molecule": "CC/C(=C(\\c1ccccc1)c1ccc(OCCN(C)C)cc1)c1ccccc1", "note": "[tamoxifen, reference compound]", "values": [{"measurement": "IC50", "result": 380, "unit": "nM"}]}
